Reference: PubChem BioAssay AID1224826 (NIAID, 2016)
The whole screen tested about 17,000 reagents; shown is a part drawn at random. Of all reagents, about 1,110 (6.6%) were called active. 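Active means lowered or raised reporter signal; replicate intensities are raw and not normalised per plate.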 Entries without a mark were called inactive. Reagents against one gene are numbered here. A reagent listed more than once was tested more than once; the source does not tell the runs apart. Reagent sequences are not shown.

Screen: 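Regulators of Tlr4 signalling leading to Tnf-alpha expression in macrophages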 (primary screen)
Cell system: RAW264.7 G9 macrophages from mouse bearing reporters for p65 (GFP) and the Tnf promoter (mCherry)
Reagents: siRNA pool against mouse genes, 100 nM
Timing: 16 h of LPS stimulation, after 2 days of siRNA transfection
Challenge: bacterial lipopolysaccharide (Salmonella minnesota R595), 10 ng/ml
Measured: 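Imaged Tnf reporter mCherry in nuclei, minus background, normalised per plate to the median and expressed as robust z-scores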
Scale: Tnf reporter robust z-score: higher = stronger Tnf promoter reporter signal after LPS; Tnf reporter intensity: higher = stronger Tnf promoter reporter signal
Call rule: 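Called active when robust z-score is at most -1.3, matching the median of the Tlr4 knock-down control, or over 3; control wells and wells with under 50 cells never active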
Meaning of the calls: active = Tnf reporter clearly lowered or raised; inactive = no clear change in Tnf reporter

gene	pool no.	Tnf reporter robust z-score	fewer than 50 cells in well	Tnf reporter intensity, replicate 1	Tnf reporter intensity, replicate 2
Zfp871	1	1	enough cells in well	213	281
Cryga	1	-0.09	enough cells in well	235	190
Ccnq	1	-0.49	enough cells in well	209	56.8
Pigp	1	-0.74	enough cells in well	147	82.3
Chchd10	1		fewer than 50 cells per well; well left out of calls	183	67.5
Il31ra	1	0.44	enough cells in well	220	213
C130058G22RIK	1	0.71	enough cells in well	115	240
Nipal4	1	0.4	enough cells in well	203	216
Atg10	1	0.13	enough cells in well	182	168
Pla2g10	1	0	enough cells in well	234	203
Imp4	1	3.3 (active)	enough cells in well	383	353
Ifitm7	1	-0.91	enough cells in well	148	80.9
Galp	1		fewer than 50 cells per well; well left out of calls	94.6	73.2
Syt10	1	2.38	enough cells in well	197	181
Dennd6b	1		fewer than 50 cells per well; well left out of calls	127	72.3
Hint3	1		fewer than 50 cells per well; well left out of calls	254	24.4
Urm1	1		fewer than 50 cells per well; well left out of calls	217	52.9
Cdk12	1	-0.56	enough cells in well	163	77.6
Nsg2	1	2.71	enough cells in well	328	313
Mapk10	1	0.13	enough cells in well	194	178
Mapk10	2	0.36	enough cells in well	154	137
Lxn	1	0.39	enough cells in well	212	168
Zfyve21	1	-0.24	enough cells in well	109	121

Single entries from above.
For “fewer than 50 cells in well”, Ifitm7 has enough cells in well
Result of C130058G22RIK under “Tnf reporter intensity, replicate 2”: 240
Result of Syt10 under “Tnf reporter intensity, replicate 1”: 197
For “Tnf reporter intensity, replicate 1”, Nipal4 reads 203
Entry for Pla2g10 in “Tnf reporter intensity, replicate 2”: 203
Mapk10 #2, Tnf reporter robust z-score → 0.36

Further reagents follow:
gene	pool no.	Tnf reporter robust z-score	fewer than 50 cells in well	Tnf reporter intensity, replicate 1	Tnf reporter intensity, replicate 2
Ube2c	1	0.56	enough cells in well	281	264
Rabepk	1	1.88	enough cells in well	240	278
Cln3	1	0.1	enough cells in well	279	191
Mei1	1	-0.06	enough cells in well	215	119
Sfrp5	1	0.32	enough cells in well	297	249
Ces2e	1	-0.84	enough cells in well	145	119
Lrp2bp	1		fewer than 50 cells per well; well left out of calls	166	54.2
Ttc3	1	-0.16	enough cells in well	101	94.1
Dact1	1	-0.89	enough cells in well	158	163
Insig1	1	-0.05	enough cells in well	212	165
Cers6	1	-0.01	enough cells in well	249	91.1
Abcb1a	1	-1.42 (active)	enough cells in well	70.4	95.1
Defb19	1	0.03	enough cells in well	195	159
Dtwd1	1		fewer than 50 cells per well; well left out of calls	53.9	24.8
Bap1	1	-0.58	enough cells in well	108	142
Fam110b	1	3.11 (active)	enough cells in well	342	213
Elovl2	1	-0.46	enough cells in well	176	85.2
Dync2i1	1	0.69	enough cells in well	334	117
Des	1	2.17	enough cells in well	364	249
Zfp219	1	0.4	enough cells in well	144	138
Sharpin	1		fewer than 50 cells per well; well left out of calls	127	35.2
Exosc2	1	1.46	enough cells in well	335	227
Brinp2	1	1.73	enough cells in well	274	238
Snhg11	1	0.54	enough cells in well	175	210
Tpcn2	1	-1.46 (active)	enough cells in well	124	64.2
Adrb2	1	-0.96	enough cells in well	166	77.9
Adrb2	1	-0.23	enough cells in well	173	317
Clec2e	1	1.1	enough cells in well	207	212
Fam161b	1	-1.88 (active)	enough cells in well	97.4	61.2
Trappc14	1	-1.18	enough cells in well	94.9	158
Pafah1b1	1	-1.18	enough cells in well	137	116
Glp2r	1	-1.15	enough cells in well	104	230
Chga	1	-0.72	enough cells in well	195	149
Glyat	1	-1.31 (active)	enough cells in well	155	79.9
Or52m2	1	-0.85	enough cells in well	88.5	81.8
